The source of these data is PMC9757077, “The B. subtilis Rok protein is an atypical H-NS-like protein irresponsive to physico-chemical cues”.

The test concerns the target T1, Rok with a C-terminal His-tag (Rok-6xHis) (B. subtilis 168) (UniProt O34857).
T1 sequence: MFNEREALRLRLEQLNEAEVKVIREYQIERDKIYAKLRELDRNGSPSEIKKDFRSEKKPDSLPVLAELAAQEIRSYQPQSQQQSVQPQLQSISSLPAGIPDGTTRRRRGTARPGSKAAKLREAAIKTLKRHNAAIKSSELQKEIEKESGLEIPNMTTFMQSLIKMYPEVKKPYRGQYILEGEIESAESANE
Description: pull-down; Rok-6xHis captured on HisPur Ni-NTA magnetic beads, sRok without His-tag added in 1:1 molar ratio (8.75 uM final); 20 mM Tris-HCl pH 8.0, 500 mM KCl, 50 mM imidazole, 3.5% glycerol, 0.05% Tween, 0.8 mg/ml acetylated BSA; eluted with 500 mM imidazole; SDS-PAGE, Coomassie; both purified.

No constants are given. Whether binding was seen depends on the method and setting. A result given as binding can be weak or reduced; the word gives no strength. Sequences can lack the tags named with a protein.

Regarding “small Rok (sRok) (B. subtilis (plasmid pLS20))”, the binding entry is listed as “binds”.
